We go through one compound from paper PMC8779140 (Pharmaceutics, 2022).

This experiment addresses T1, SARS-CoV-2 PL^pro (Severe acute respiratory syndrome coronavirus 2, UniProt P0DTD1).
T1 construct: The synthetic gene of SARS-CoV-2 PL^pro was cloned into the pET16b vector; made in house; host or cells: E. coli BL21(DE3)
Description: biochemical.

`CC/C(=C(\c1ccccc1)c1ccc(OCCN(C)C)cc1)c1ccccc1` [Tamoxifen]: the IC50 (commonly the midpoint of a concentration-inhibition curve) came out at 41 ± 3.6 µM.
